Assay results published in PMC10503807.
No constants are given. Whether binding was seen depends on the method and setting. In cells and extracts the contact can be indirect. A yes stands for co-enrichment or nearness to the bait. Other partners may have been found.

By UniProt entry, the sequences of proteins in these tests, tags left out. Residues count along the entry.
UniProt Q91WP6, residues 21-418: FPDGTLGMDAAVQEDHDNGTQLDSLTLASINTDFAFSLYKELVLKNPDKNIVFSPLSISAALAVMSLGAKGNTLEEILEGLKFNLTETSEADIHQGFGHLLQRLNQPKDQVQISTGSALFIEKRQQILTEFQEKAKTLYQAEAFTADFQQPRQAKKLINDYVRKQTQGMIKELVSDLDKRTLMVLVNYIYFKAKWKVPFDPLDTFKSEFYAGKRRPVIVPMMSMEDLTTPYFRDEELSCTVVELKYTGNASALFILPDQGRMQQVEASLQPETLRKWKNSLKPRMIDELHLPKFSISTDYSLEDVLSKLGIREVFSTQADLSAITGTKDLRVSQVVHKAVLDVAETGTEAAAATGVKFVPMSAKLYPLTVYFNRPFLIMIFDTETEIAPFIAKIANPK

T1: Praja1 (PJA1), mouse (mouse (endogenous in hippocampus)) (UniProt O55176)
T1 sequence: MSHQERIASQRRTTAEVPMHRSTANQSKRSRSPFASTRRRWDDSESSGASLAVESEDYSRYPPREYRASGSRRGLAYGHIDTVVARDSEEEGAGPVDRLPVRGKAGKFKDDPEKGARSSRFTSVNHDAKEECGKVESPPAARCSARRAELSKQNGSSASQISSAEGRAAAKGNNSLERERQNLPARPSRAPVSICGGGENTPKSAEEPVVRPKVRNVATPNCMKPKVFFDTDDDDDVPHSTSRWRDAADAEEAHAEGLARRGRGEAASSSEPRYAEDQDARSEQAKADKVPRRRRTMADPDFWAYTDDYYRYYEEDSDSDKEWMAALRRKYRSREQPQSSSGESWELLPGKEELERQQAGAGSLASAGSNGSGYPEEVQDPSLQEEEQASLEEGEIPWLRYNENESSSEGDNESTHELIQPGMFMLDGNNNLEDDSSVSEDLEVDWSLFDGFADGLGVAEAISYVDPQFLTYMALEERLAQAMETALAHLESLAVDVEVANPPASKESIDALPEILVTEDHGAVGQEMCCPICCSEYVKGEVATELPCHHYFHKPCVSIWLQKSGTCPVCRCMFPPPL

B1: GFM2 (ribosome-releasing factor 2, mitochondrial) (protein, UniProt Q8R2Q4 1-779)
chain: MFTKWRIFAVNHQRTFSVHLNTMCYCKIKANLKRLKTQLPLTRNYSSAPGIAGSDVKSLHSVINPPVAKIRNIGIMAHIDAGKTTTTERILYYSGYTRSLGDVDDGDTVTDFMAQERERGITIQSAAVTLDWKGYRVNLIDTPGHVDFTLEVERCLRVLDGAVAVFDASAGVEAQTLTVWRQADKHKIPRICFLNKMDKTGASFNYAVESIREKLKAKPLILQLPIGEARTFQGVVDVVNKEKLLWNSNSDDGKDFERMPLSEASDRELLKETIEARNSLIEQVADLDDEFADLVLGEFSENFDLVPAEKLQAAVHRVTLAQAAVPVLCGSALKNKGVQPLLDAVTTYLPSPEEREDRFLQWYEGDLCALAFKVLHDKQRGPLVFLRIYSGTLTPQLAVHNINRNCTERMSRLLLPFADQHVEIPSLTAGNIALTVGLKQTATGDTIVSSKSSALAAARRAGRGEREHGKKREAESLLLAGVEVPEPVFFCTIEPPSVAKQPDLDHALERLQREDPSLKVKLDPDSGQTVLCGMGELHIEIIHDRIKREYGLETYLGPLQVAYRETILNSVRATDTLDRVLGDKRHLVSAELEVRPAEEPCAVAKIEYADCVGEDLLQASREAIESAVHSACLQGPLLGSPVQDVAMTLHSLMIHPGTSTTMVTACISRCMQKALKKADKQVLEPLMSLEVTVSREYLSPVLADLAQRRGNIQEIQTRQDNRVVLGFVPLAEIMGYSTVLRTLTSGSATFALELSTYQAMSPQDQSALLNQRSGLAHVL

Biological target: T1, Praja1 (PJA1), mouse (mouse (endogenous in hippocampus))
Experiment: affinity purification with mass spectrometry; IP from hippocampal lysate (NP-40 lysis buffer) with an anti-PJA1 antibody, protein A/G magnetic agarose beads, LC-MS/MS of the bound proteins

Molecule | binding
Serine peptidase inhibitor clade A member 3N (Serpina3n) (from UniProt Q91WP6 21-418) | binds
B1 | binds
